Our source for the binding values is PMC8300624.

Chains of the proteins cited; added tags and fusions are not shown.
UniProt Q99683: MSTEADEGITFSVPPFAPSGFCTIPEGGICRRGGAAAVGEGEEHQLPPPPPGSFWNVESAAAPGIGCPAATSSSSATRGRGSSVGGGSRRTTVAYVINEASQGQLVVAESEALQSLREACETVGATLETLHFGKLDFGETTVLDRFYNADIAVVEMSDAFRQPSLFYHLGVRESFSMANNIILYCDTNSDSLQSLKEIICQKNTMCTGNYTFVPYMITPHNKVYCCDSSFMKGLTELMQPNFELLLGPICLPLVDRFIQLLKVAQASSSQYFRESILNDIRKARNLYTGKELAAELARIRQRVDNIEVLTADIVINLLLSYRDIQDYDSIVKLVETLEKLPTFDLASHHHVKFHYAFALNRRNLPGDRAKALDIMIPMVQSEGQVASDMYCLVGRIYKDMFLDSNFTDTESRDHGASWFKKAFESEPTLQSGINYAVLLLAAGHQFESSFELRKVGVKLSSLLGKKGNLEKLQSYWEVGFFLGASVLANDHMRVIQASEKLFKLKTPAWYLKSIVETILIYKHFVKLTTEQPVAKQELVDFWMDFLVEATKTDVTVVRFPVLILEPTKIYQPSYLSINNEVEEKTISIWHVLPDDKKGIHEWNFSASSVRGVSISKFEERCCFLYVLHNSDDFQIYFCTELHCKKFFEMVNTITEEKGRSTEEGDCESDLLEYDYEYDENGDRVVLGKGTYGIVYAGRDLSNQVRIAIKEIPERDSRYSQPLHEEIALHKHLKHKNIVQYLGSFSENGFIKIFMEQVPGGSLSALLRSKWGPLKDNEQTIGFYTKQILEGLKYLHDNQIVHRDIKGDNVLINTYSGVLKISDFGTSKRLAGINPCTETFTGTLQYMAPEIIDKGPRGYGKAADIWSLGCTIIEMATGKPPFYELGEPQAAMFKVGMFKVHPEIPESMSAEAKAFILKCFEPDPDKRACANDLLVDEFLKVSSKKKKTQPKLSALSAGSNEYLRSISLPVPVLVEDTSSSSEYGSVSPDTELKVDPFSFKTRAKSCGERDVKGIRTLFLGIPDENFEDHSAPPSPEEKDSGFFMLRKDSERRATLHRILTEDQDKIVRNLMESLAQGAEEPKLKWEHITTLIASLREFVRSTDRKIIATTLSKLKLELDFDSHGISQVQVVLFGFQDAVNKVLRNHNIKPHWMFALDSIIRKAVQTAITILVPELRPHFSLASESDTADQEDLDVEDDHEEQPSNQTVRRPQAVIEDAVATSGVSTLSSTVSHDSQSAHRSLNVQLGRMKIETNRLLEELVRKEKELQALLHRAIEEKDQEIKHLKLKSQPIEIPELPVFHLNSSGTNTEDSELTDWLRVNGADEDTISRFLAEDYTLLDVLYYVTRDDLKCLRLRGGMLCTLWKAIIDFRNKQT

The target in experiment [1] is ASK1-LN (apoptosis signal-regulating kinase 1 fused to the N-terminal half of mLumin) (human) (UniProt Q99683). Description: split reporter; mLumin BiFC in live HEK293 MSR cells, repeated in AnxA2 KO HEK293 MSR cells; LN and LC constructs and GFP co-transfected in equimolar ratio; cells treated with 100 µM H2O2 for 30 min, X/XO (8 µM xanthine, 1 mU/mL xanthine oxidase) for 18 h or 0.8 µM auranofin for 18 h; read-out mLumin/GFP integrated fluorescence.

Experiment [2] shares this target. The experiment can be described thus: condition: only cells without a treatment that raises H2O2; split reporter; mLumin BiFC in live HEK293 MSR cells, no treatment (no exogenous H2O2, X/XO or auranofin); read-out mLumin/GFP integrated fluorescence.

These are yes or no findings as the source states them, for the method shown. Binding seen in cells or lysates may run through a third protein. Some binding calls cover weakened binding; strength is not graded here. Tags and fused reporters may be left off the sequences shown.

B1: Prdx1 C173A-LC (resolving cysteine mutant fused to the C-terminal half of mLumin) (enzyme, UniProt Q06830 1-199)
chain: MSSGNAKIGHPAPNFKATAVMPDGQFKDISLSDYKGKYVVFFFYPLDFTFVCPTEIIAFSDRAEEFKKLNCQVIGASVDSHFCHLAWVNTPKKQGGLGPMNIPLVSDPKRTIAQDYGVLKADEGISFRGLFIIDDKGILRQITVNDLPVGRSVDETLRLVQAFQFTDKHGEVAPAGWKPGSDTIKPDVQKSKEYFSKQK
With B1, the binding result in experiment [1] is “binds”.

B2: Prdx1 WT-LC (peroxiredoxin-1 fused to the C-terminal half of mLumin) (enzyme, UniProt Q06830 1-199)
chain: MSSGNAKIGHPAPNFKATAVMPDGQFKDISLSDYKGKYVVFFFYPLDFTFVCPTEIIAFSDRAEEFKKLNCQVIGASVDSHFCHLAWVNTPKKQGGLGPMNIPLVSDPKRTIAQDYGVLKADEGISFRGLFIIDDKGILRQITVNDLPVGRSVDETLRLVQAFQFTDKHGEVCPAGWKPGSDTIKPDVQKSKEYFSKQK
Regarding B2, in experiment [2], the binding entry is listed as “no binding”.
